This is an account of results in paper PMC3476531, “Synergy of Peptide and Sugar in O-GlcNAcase Substrate Recognition” (Chemistry & Biology, 2012).

By UniProt entry, the sequences of proteins in these tests, tags left out. Where a name states a change or a piece, a line headed by the entry shows the natural chain unless it says otherwise.
UniProt O60502, whole entry: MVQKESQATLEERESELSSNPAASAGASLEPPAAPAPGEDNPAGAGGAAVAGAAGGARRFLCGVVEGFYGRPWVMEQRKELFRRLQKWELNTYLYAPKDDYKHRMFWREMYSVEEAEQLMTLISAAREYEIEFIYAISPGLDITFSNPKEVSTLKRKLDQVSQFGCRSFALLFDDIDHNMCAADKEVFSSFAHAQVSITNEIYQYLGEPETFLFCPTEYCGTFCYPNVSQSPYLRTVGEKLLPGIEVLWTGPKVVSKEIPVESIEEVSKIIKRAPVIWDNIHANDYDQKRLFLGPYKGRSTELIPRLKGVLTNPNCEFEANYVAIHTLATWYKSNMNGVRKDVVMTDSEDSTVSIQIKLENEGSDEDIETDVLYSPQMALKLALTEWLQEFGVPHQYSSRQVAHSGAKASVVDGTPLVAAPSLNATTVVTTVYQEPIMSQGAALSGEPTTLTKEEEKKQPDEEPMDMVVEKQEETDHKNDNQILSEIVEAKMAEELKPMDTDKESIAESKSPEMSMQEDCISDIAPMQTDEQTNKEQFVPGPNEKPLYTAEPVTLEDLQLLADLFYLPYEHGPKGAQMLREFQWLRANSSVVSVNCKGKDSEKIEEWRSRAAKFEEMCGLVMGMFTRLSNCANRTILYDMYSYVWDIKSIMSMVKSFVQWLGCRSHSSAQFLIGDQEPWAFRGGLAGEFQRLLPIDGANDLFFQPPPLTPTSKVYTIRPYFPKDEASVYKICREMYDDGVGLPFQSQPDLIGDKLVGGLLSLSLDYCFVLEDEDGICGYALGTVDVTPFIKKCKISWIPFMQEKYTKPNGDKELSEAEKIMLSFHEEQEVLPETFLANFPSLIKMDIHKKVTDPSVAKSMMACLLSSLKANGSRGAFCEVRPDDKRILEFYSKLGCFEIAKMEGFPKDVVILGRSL
UniProt O60502, whole entry Y69F: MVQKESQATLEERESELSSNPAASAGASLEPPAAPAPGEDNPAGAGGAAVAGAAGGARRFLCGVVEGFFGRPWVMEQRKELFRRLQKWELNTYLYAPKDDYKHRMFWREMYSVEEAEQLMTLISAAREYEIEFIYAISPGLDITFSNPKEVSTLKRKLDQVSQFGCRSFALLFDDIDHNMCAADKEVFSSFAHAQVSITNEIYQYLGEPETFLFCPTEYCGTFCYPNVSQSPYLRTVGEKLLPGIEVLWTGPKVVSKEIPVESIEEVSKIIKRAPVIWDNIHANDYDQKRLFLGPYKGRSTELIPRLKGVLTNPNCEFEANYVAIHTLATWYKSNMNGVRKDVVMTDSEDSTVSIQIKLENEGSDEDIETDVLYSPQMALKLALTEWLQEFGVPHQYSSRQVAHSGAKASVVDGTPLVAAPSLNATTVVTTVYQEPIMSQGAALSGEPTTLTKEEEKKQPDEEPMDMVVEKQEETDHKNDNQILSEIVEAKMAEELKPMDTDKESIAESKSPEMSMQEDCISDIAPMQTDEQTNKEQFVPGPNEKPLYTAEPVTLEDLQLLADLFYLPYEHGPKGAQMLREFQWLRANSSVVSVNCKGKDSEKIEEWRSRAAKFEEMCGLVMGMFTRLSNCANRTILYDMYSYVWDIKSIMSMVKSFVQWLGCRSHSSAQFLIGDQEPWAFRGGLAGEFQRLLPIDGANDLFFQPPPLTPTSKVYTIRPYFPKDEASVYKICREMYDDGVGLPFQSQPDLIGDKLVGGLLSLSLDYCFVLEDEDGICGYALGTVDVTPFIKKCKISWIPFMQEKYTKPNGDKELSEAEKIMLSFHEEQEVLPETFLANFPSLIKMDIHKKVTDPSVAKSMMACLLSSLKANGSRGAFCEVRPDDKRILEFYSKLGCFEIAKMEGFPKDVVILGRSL
UniProt O60502, whole entry Y69K: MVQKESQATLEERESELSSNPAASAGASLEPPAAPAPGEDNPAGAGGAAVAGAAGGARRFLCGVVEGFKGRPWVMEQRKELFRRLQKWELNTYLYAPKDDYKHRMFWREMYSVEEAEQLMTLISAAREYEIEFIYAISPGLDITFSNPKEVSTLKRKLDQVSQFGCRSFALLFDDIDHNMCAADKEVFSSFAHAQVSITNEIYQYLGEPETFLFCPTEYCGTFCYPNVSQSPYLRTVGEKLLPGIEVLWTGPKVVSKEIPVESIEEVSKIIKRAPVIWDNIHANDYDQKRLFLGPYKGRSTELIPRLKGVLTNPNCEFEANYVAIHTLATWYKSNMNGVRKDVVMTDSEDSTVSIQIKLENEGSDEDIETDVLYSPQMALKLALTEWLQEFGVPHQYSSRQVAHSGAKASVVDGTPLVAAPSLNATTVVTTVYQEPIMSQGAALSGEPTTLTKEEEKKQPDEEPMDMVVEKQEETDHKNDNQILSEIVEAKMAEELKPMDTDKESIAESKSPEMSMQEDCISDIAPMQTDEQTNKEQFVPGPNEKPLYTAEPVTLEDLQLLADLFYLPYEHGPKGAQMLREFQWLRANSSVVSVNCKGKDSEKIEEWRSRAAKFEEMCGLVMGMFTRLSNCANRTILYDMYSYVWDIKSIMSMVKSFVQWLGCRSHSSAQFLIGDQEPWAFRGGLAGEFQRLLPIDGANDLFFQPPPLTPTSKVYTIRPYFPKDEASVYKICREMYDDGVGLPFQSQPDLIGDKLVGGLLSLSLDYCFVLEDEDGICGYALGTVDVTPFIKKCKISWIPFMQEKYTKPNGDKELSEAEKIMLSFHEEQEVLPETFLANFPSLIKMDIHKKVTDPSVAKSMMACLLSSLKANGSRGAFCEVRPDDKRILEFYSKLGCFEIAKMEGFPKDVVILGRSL
UniProt O60502, whole entry Y69Q: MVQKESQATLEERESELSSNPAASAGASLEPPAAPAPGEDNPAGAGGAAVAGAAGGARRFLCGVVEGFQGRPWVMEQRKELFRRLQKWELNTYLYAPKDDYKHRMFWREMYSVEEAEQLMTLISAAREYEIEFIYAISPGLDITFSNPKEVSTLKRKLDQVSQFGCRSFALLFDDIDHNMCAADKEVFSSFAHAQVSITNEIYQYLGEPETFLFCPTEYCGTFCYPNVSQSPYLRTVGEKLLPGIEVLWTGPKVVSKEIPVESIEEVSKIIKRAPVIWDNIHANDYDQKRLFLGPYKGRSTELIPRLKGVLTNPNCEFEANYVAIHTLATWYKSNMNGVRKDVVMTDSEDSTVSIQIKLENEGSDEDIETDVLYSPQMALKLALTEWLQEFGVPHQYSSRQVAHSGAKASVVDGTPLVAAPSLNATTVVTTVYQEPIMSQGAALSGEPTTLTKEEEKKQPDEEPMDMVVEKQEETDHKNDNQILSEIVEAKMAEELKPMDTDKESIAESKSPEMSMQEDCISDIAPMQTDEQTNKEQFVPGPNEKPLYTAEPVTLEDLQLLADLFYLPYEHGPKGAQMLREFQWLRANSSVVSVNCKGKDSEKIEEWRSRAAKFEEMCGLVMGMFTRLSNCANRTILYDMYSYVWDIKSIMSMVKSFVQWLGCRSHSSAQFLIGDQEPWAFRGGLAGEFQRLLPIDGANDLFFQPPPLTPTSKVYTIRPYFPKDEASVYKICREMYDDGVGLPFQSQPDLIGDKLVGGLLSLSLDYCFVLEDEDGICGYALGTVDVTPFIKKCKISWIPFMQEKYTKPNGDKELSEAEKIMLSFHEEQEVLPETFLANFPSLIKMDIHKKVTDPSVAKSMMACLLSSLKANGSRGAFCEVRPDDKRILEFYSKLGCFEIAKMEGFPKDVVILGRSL
UniProt O60502, whole entry Y69S: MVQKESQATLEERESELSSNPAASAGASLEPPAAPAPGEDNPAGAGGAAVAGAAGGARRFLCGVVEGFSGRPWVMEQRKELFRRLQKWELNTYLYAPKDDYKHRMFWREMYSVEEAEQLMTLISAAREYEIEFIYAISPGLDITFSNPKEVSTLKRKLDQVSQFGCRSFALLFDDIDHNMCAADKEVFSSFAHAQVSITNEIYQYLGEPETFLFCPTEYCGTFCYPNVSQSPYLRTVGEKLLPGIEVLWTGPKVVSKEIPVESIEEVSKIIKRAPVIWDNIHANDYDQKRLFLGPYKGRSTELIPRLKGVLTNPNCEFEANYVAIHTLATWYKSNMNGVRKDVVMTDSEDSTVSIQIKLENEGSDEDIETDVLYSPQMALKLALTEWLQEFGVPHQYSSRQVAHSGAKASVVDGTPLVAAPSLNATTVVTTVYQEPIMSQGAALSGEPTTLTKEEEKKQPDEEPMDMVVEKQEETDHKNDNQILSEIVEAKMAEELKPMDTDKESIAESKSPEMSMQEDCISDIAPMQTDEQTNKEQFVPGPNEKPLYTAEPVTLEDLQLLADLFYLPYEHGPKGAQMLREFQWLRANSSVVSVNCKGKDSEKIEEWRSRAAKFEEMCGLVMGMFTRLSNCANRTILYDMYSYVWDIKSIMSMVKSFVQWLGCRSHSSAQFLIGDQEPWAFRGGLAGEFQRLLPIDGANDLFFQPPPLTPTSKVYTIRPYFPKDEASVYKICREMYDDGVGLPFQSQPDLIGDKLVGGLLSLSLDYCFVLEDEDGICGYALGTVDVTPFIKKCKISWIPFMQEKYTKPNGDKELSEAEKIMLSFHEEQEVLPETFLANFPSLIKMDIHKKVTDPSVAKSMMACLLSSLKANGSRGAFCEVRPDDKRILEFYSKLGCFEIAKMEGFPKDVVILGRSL

Holding throughout (assay type): biochemical
For one assay, the target named is hOGA Y69S (Homo sapiens, UniProt O60502, Y69S). As to the kind of experiment: hOGA Y69S mutant glycopeptide hydrolysis, substrate competition assay. Particulars: read-out: Michaelis constant (KM) for hOGA Y69S; hOGA point mutant Y69S; competition with 4MU-GlcNAc; 37°C, pH 7.4; triplicate.
A further assay concerns the target hOGA Y69F (Homo sapiens, UniProt O60502, Y69F). The assay can be described thus: hOGA Y69F mutant glycopeptide hydrolysis, substrate competition assay. The settings on record: read-out: Michaelis constant (KM) for hOGA Y69F; hOGA point mutant Y69F; competition with 4MU-GlcNAc; 37°C, pH 7.4; triplicate.
Another assay addresses hOGA Y69K (Homo sapiens, UniProt O60502, Y69K). The assay can be described thus: hOGA Y69K mutant glycopeptide hydrolysis, substrate competition assay. Particulars: read-out: Michaelis constant (KM) for hOGA Y69K; hOGA point mutant Y69K; competition with 4MU-GlcNAc; 37°C, pH 7.4; triplicate.
Another assay deals with hOGA Y69Q (Homo sapiens, UniProt O60502, Y69Q). As to the kind of experiment: hOGA Y69Q mutant glycopeptide hydrolysis, substrate competition assay. The settings on record: read-out: Michaelis constant (KM) for hOGA Y69Q; hOGA point mutant Y69Q; competition with 4MU-GlcNAc; 37°C, pH 7.4; triplicate.
For the next assay, the target named is hOGA (Homo sapiens, UniProt O60502). The assay can be described thus: hOGA glycopeptide hydrolysis, substrate competition assay with 4MU-GlcNAc reporter. The settings on record: read-out: Michaelis constant (KM) of glycopeptide substrate for hOGA; wild-type full-length hOGA; competition with 4MU-GlcNAc reporter substrate; 37°C, 50 mM citrate-phosphate buffer pH 7.4, 0.1 mg/ml BSA; triplicate; ± error of curve-fit; listed as VDS(O-GlcNAc)TPG.

The structures given here were assigned with low confidence; some may be wrong.

As usually defined, the Km is the substrate concentration at which the rate is half of its maximum. With `CC(=O)N[C@H]1[C@H](OC[C@H](NC(=O)[C@H](CC(=O)O)NC(=O)[C@@H](NC(C)=O)C(C)C)C(=O)N[C@H](C(=O)N2CCC[C@H]2C(=O)NCC(N)=O)[C@@H](C)O)O[C@H](CO)[C@@H](O)[C@@H]1O`, the Km at hOGA Y69S was 3.4 mM; on hOGA Y69F it was 2.7 mM; at hOGA Y69K it was > 4 mM; at hOGA Y69Q, > 4 mM; at hOGA, 1.3 mM.
